Measured values: publication PMC12134299
No constants are given. Whether binding was seen depends on the method and setting. Binding seen in cells or lysates may run through a third protein. Some binding calls cover weakened binding; strength is not graded here.

Protein sequences, listed by entry. Tags and fused reporters are not part of them. Lines headed by an entry give the natural chain unless they say otherwise; changes in a name come on top.
UniProt Q16665: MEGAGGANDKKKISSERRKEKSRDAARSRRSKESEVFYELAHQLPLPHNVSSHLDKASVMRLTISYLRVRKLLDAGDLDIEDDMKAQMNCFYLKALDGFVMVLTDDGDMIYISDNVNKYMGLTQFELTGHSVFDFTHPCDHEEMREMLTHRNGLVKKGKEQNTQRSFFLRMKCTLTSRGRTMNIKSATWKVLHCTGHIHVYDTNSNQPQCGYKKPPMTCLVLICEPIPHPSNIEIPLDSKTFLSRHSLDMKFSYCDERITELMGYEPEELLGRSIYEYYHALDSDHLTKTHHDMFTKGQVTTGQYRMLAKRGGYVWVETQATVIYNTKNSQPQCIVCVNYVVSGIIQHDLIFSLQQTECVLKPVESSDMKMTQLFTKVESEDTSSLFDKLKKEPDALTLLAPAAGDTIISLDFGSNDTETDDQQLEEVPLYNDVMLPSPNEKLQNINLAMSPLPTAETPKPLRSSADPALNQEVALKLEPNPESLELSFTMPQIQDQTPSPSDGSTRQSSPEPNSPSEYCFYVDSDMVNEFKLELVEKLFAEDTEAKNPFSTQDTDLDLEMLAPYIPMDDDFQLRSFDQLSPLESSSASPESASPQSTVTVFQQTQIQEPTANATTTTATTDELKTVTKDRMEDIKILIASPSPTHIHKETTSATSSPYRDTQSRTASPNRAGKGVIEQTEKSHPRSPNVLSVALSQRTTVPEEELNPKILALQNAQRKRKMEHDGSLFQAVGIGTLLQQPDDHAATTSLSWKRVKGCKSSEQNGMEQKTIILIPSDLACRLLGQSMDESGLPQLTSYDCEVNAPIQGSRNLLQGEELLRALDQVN
UniProt P14618: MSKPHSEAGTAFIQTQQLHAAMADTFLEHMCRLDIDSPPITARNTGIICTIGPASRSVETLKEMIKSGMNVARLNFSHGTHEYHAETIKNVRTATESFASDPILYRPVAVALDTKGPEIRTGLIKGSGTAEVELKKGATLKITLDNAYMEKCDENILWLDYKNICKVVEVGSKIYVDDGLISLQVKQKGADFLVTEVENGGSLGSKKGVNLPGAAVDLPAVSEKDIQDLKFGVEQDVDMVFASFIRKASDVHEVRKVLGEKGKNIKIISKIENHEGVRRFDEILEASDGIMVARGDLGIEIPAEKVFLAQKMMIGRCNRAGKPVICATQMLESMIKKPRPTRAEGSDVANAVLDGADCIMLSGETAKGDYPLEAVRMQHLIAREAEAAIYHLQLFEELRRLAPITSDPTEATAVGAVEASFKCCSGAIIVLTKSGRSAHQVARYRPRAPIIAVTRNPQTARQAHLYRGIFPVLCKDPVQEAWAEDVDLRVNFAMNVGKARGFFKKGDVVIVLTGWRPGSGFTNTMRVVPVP
UniProt O00629: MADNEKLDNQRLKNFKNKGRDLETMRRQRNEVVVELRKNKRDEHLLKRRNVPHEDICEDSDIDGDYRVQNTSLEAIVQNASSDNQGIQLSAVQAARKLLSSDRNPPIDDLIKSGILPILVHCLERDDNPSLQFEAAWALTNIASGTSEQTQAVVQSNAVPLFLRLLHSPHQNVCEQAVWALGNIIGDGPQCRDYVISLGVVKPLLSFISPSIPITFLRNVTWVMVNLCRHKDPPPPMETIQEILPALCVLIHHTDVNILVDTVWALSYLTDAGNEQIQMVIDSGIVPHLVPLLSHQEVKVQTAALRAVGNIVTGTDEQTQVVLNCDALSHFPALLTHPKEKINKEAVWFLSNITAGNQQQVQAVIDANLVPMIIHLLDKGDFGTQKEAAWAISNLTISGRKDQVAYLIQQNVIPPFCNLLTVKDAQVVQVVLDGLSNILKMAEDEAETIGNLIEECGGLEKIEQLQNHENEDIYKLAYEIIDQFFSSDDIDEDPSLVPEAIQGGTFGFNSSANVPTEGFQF

Key:
Flag-HIF-1α C800S mutant [1] = target: Flag-HIF-1α C800S mutant (UniProt Q16665); test: co-IP; HEK-293T cells transfected with Flag-HIF-1α WT or C800S, with or without DMF; co-IP and western blot for p300 and PKM2 (Fig. 5G, 5I); which protein was precipitated not given
Flag-HIF-1α WT [2] = target: Flag-HIF-1α WT (UniProt Q16665); test: as above
Flag-HIF-1α C800S mutant [3] = target: Flag-HIF-1α C800S mutant (UniProt Q16665); test: co-IP; RCC4 cells with Flag-HIF-1α WT or C800S (importins transfected in Fig. 5B), with or without DMF or FHIN1; co-IP and western blot for importin α3 (Fig. 5B, 5J); which protein was precipitated not given
Flag-HIF-1α WT [4] = target: Flag-HIF-1α WT (UniProt Q16665); test: as above

| binding (Flag-HIF-1α C800S mutant [1]) | binding (Flag-HIF-1α WT [2]) | binding (Flag-HIF-1α C800S mutant [3]) | binding (Flag-HIF-1α WT [4]) | Substance |
| --- | --- | --- | --- | --- |
| binds | binds |  |  | PKM2 (from UniProt P14618 1-531) |
|  |  | binds | binds | importin α3 (from UniProt O00629 1-521) |
